This is one part of the list.
Columns and labels:
Test in all cases: glycan array binding signal (z-score within array); higher = stronger binding
Settings in all cases: glycan notation: IUPAC condensed, linker removed
Fuc(a1-2)Gal = target: Fuc(a1-2)Gal
How it was run: (§1)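 Arrays were curated from the Consortium for Functional Glycomics database, 3228 in total, and kept only where the protein sequence was available. Binding is expressed as a within-array Z-score. This score was averaged across arrays of the same protein sequence at different concentrations or buffers and across linkers, and negative values can be read as non-binding.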

Fuc(a1-2)Gal(b1-3)GalNAc = target: Fuc(a1-2)Gal(b1-3)GalNAc
How it was run: as §1

[1] = target: Fuc(a1-2)Gal(b1-3)GalNAc(a1-3)[Fuc(a1-2)]Gal(b1-4)Glc
How it was run: as §1

[2] = target: Fuc(a1-2)Gal(b1-3)GalNAc(a1-3)[Fuc(a1-2)]Gal(b1-4)GlcNAc
How it was run: as §1

[3] = target: Fuc(a1-2)Gal(b1-3)GalNAc(b1-3)Gal
How it was run: as §1

[4] = target: Fuc(a1-2)Gal(b1-3)GalNAc(b1-3)Gal(a1-4)Gal(b1-4)Glc
How it was run: as §1

[5] = target: Fuc(a1-2)Gal(b1-3)GalNAc(b1-4)[Neu5Ac(a2-3)]Gal(b1-4)Glc
How it was run: as §1

Fuc(a1-2)Gal(b1-3)GlcNAc = target: Fuc(a1-2)Gal(b1-3)GlcNAc
How it was run: as §1

[6] = target: Fuc(a1-2)Gal(b1-3)GlcNAc(b1-2)Man(a1-3)[Fuc(a1-2)Gal(b1-3)GlcNAc(b1-2)Man(a1-6)]Man(b1-4)GlcNAc(b1-4)GlcNAc
How it was run: as §1

[7] = target: Fuc(a1-2)Gal(b1-3)GlcNAc(b1-2)Man(a1-3)[Fuc(a1-2)Gal(b1-3)GlcNAc(b1-2)Man(a1-6)]Man(b1-4)GlcNAc(b1-4)[Fuc(a1-6)]GlcNAc
How it was run: as §1

[8] = target: Fuc(a1-2)Gal(b1-3)GlcNAc(b1-3)Gal(b1-4)Glc
How it was run: as §1

[9] = target: Fuc(a1-2)Gal(b1-3)GlcNAc(b1-3)GalNAc
How it was run: as §1

[10] = target: Fuc(a1-2)Gal(b1-3)GlcNAc(b1-3)[Fuc(a1-2)Gal(b1-3)GlcNAc(b1-6)]GalNAc
How it was run: as §1

[11] = target: Fuc(a1-2)Gal(b1-3)GlcNAc(b1-3)[Gal(b1-4)GlcNAc(b1-6)]Gal(b1-4)Glc
How it was run: as §1

[12] = target: Fuc(a1-2)Gal(b1-3)GlcNAc(b1-3)[Neu5Ac(a2-6)Gal(b1-4)GlcNAc(b1-6)]Gal(b1-4)Glc
How it was run: as §1

[13] = target: Fuc(a1-2)Gal(b1-3)GlcNAc6S
How it was run: as §1

[14] = target: Fuc(a1-2)Gal(b1-3)[Fuc(a1-4)]GlcNAc
How it was run: as §1

[15] = target: Fuc(a1-2)Gal(b1-3)[Fuc(a1-4)]GlcNAc(b1-2)Man(a1-3)[Fuc(a1-2)Gal(b1-3)[Fuc(a1-4)]GlcNAc(b1-2)Man(a1-3)]Man(b1-4)GlcNAc(b1-4)GlcNAc
How it was run: as §1

[16] = target: Fuc(a1-2)Gal(b1-3)[Fuc(a1-4)]GlcNAc(b1-2)Man(a1-3)[Fuc(a1-2)Gal(b1-3)[Fuc(a1-4)]GlcNAc(b1-2)Man(a1-6)]Man(b1-4)GlcNAc(b1-4)[Fuc(a1-6)]GlcNAc(b1-4)[Fuc(a1-6)]GlcNAc
How it was run: as §1

[17] = target: Fuc(a1-2)Gal(b1-3)[Fuc(a1-4)]GlcNAc(b1-3)[Fuc(a1-3)[Gal(b1-4)]GlcNAc(b1-6)]Gal(b1-4)Glc
How it was run: as §1

[18] = target: Fuc(a1-2)Gal(b1-3)[Fuc(a1-4)]GlcNAc(b1-3)[Gal(b1-4)GlcNAc(b1-6)]Gal(b1-4)Glc
How it was run: as §1

[19] = target: Fuc(a1-2)Gal(b1-4)Fuc(a1-3)]GlcNAc(b1-2)Man(a1-3)[Fuc(a1-2)Gal(b1-4)[Fuc(a1-3)]GlcNAc(b1-2)Man(a1-6)]Man(b1-4)GlcNAc(b1-4)GlcNAc
How it was run: as §1

Fuc(a1-2)Gal(b1-4)Glc = target: Fuc(a1-2)Gal(b1-4)Glc
How it was run: as §1

Fuc(a1-2)Gal(b1-4)Glc6S = target: Fuc(a1-2)Gal(b1-4)Glc6S
How it was run: as §1

Fuc(a1-2)Gal(b1-4)GlcNAc = target: Fuc(a1-2)Gal(b1-4)GlcNAc
How it was run: as §1

[20] = target: Fuc(a1-2)Gal(b1-4)GlcNAc(b1-2)Man
How it was run: as §1

[21] = target: Fuc(a1-2)Gal(b1-4)GlcNAc(b1-2)Man(a1-3)[Fuc(a1-2)Gal(b1-4)GlcNAc(b1-2)Man(a1-6)]Man(b1-4)GlcNAc(b1-4)GlcNAc
How it was run: as §1

[22] = target: Fuc(a1-2)Gal(b1-4)GlcNAc(b1-2)Man(a1-3)[Fuc(a1-2)Gal(b1-4)GlcNAc(b1-2)Man(a1-6)]Man(b1-4)GlcNAc(b1-4)[Fuc(a1-6)]GlcNAc
How it was run: as §1

[23] = target: Fuc(a1-2)Gal(b1-4)GlcNAc(b1-2)[Fuc(a1-2)Gal(b1-4)GlcNAc(b1-4)]Man(a1-3)[Fuc(a1-2)Gal(b1-4)GlcNAc(b1-2)Man(a1-6)]Man(b1-4)GlcNAc(b1-4)GlcNAc
How it was run: as §1

[24] = target: Fuc(a1-2)Gal(b1-4)GlcNAc(b1-3)Gal(b1-4)GlcNAc
How it was run: as §1

B1: pTFF2 (Sus scrofa), P01359 (protein)
chain: KPAACRCSRQDPKNRVNCGFPGITSDQCFTSGCCFDSQVPGVPWCFKPLPAQESEECVMEVSARKNCGYPGISPEDCAARNCCFSDTIPEVPWCFFPMSVEACHY
glycan array binding signal (z-score) (Fuc(a1-2)Gal): -0.498
glycan array binding signal (z-score) (Fuc(a1-2)Gal(b1-3)GalNAc): 0.422
glycan array binding signal (z-score) [1]: -0.793
glycan array binding signal (z-score) [2]: -0.918
glycan array binding signal (z-score) [3]: -0.826
glycan array binding signal (z-score) [4]: -0.047
glycan array binding signal (z-score) [5]: 1.92
glycan array binding signal (z-score) (Fuc(a1-2)Gal(b1-3)GlcNAc): -0.922
glycan array binding signal (z-score) [6]: 1.71
glycan array binding signal (z-score) [7]: -0.351
glycan array binding signal (z-score) [8]: 0.538
glycan array binding signal (z-score) [9]: -0.489
glycan array binding signal (z-score) [10]: 0.143
glycan array binding signal (z-score) [11]: 1.25
glycan array binding signal (z-score) [12]: -0.709
glycan array binding signal (z-score) [13]: -1.21
glycan array binding signal (z-score) [14]: 0.425
glycan array binding signal (z-score) [15]: -2.01
glycan array binding signal (z-score) [16]: -0.292
glycan array binding signal (z-score) [17]: -0.099
glycan array binding signal (z-score) [18]: -0.307
glycan array binding signal (z-score) [19]: 0.412
glycan array binding signal (z-score) (Fuc(a1-2)Gal(b1-4)Glc): 0.762
glycan array binding signal (z-score) (Fuc(a1-2)Gal(b1-4)Glc6S): -0.096
glycan array binding signal (z-score) (Fuc(a1-2)Gal(b1-4)GlcNAc): -0.534
glycan array binding signal (z-score) [20]: -0.686
glycan array binding signal (z-score) [21]: 0.121
glycan array binding signal (z-score) [22]: 0.732
glycan array binding signal (z-score) [23]: 1.61
glycan array binding signal (z-score) [24]: 0.988
